No constants are given. Whether binding was seen depends on the method and setting. Binding seen in cells or lysates may run through a third protein. A yes stands for co-enrichment or nearness to the bait. Other partners may have been found. Sequences can lack the tags named with a protein.
Target: T1, recombinant His-tagged rRv2626c (Mycobacterium tuberculosis H37Rv) (UniProt P9WJA3)
T1 sequence: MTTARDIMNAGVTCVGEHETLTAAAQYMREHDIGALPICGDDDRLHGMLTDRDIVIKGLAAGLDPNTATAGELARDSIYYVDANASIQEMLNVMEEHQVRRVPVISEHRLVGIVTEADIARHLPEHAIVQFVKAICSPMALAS
Experiment: affinity purification with mass spectrometry; only the target purified

Protein sequences, listed by entry. Tags and fused reporters are not part of them. Lines headed by an entry give the natural chain unless they say otherwise; changes in a name come on top.
UniProt O60603: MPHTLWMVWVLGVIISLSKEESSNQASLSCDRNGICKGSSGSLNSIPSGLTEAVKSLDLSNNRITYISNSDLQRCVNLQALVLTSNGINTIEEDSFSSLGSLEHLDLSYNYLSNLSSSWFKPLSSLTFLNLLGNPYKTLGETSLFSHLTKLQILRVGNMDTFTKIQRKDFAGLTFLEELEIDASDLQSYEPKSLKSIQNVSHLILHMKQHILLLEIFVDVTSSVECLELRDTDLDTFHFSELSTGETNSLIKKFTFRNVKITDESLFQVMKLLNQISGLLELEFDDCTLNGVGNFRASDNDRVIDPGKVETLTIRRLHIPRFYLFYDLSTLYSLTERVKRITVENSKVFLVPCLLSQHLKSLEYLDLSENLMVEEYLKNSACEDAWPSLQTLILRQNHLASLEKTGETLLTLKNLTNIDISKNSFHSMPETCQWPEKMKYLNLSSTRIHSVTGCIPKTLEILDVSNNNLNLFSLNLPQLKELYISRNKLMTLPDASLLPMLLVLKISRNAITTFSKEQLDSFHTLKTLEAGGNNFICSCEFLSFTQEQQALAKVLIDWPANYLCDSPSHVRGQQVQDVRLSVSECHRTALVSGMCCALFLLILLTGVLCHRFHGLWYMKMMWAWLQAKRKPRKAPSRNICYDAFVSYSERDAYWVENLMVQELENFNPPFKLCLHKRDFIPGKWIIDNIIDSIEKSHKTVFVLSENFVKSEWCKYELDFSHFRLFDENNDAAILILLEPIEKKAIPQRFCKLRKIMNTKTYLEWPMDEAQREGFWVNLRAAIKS
UniProt P51617: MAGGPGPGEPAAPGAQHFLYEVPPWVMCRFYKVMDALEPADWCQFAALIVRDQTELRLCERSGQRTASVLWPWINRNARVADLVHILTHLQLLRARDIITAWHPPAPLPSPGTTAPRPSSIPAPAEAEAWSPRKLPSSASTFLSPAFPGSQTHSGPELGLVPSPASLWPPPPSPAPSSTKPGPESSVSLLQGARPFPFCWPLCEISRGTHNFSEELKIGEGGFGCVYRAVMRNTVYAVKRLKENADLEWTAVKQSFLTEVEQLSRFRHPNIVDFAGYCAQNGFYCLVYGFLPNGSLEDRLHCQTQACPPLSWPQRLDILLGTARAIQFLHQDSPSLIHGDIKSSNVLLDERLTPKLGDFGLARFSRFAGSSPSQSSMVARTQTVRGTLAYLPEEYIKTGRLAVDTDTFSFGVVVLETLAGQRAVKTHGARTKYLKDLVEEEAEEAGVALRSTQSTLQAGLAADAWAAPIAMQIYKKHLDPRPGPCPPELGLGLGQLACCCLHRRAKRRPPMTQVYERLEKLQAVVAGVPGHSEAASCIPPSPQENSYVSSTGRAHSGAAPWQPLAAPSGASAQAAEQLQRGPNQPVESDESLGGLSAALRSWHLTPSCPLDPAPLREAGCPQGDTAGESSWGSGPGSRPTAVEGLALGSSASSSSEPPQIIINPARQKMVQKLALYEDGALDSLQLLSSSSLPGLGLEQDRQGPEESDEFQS
UniProt Q13546: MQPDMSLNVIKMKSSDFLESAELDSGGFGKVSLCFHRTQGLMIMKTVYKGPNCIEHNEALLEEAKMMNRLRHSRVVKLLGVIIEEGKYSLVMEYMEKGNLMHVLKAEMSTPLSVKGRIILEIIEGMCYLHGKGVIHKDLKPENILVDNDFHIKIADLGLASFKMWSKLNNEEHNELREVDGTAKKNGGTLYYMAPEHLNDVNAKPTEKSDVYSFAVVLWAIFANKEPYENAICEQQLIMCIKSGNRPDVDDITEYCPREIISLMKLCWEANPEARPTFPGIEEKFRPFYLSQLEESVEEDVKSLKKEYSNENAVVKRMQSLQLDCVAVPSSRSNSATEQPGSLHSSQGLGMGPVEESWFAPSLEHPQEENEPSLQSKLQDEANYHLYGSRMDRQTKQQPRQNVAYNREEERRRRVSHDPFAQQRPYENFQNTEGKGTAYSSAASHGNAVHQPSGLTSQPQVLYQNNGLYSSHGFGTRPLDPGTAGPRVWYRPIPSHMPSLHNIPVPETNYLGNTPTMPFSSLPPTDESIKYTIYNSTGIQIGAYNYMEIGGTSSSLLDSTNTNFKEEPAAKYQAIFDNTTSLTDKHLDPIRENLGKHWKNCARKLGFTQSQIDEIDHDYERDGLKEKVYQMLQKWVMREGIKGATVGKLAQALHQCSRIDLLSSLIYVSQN
UniProt Q9Y4K3: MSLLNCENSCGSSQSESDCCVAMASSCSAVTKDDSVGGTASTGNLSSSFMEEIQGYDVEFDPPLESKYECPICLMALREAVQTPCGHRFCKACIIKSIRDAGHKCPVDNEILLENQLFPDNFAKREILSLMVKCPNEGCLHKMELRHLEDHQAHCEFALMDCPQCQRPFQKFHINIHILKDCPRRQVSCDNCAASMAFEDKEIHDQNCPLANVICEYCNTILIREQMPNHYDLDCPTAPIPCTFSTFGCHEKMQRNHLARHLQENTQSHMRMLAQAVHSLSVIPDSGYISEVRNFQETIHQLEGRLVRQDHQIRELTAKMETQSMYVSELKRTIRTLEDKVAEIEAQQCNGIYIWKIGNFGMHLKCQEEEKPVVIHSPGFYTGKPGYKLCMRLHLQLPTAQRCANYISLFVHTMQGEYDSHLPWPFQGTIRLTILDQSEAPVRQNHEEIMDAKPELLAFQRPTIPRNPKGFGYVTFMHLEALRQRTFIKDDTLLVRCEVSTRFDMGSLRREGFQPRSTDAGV

Row | Substance | binding
1 | TLR2 (from UniProt O60603 21-784) (receptor) | binds
2 | IRAK1 (from UniProt P51617 1-712) (enzyme) | binds
3 | RIP1 (from UniProt Q13546 1-671) (enzyme) | binds
4 | endogenous TRAF6 of THP-1 cells (from UniProt Q9Y4K3 1-522) | binds

Reference: article PMC7721357
